# The other results are listed elsewhere or left out. Most entries show no effect beyond the scatter of the controls.
# By UniProt entry, the sequences of proteins in these tests, tags left out. Where a name states a change or a piece, a line headed by the entry shows the natural chain unless it says otherwise.
# UniProt Q7Z4G4: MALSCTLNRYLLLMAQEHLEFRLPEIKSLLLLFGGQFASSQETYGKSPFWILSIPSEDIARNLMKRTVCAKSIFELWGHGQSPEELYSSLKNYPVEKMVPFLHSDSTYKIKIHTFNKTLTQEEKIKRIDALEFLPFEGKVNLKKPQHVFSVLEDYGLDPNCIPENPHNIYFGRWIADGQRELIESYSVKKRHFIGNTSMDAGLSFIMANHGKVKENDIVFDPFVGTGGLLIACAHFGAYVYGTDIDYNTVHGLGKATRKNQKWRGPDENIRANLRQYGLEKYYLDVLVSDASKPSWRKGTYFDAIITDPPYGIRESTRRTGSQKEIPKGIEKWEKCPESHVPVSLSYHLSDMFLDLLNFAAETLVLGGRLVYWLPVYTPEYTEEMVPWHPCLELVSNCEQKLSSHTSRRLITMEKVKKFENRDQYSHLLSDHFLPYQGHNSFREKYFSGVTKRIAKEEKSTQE
# UniProt Q71F56: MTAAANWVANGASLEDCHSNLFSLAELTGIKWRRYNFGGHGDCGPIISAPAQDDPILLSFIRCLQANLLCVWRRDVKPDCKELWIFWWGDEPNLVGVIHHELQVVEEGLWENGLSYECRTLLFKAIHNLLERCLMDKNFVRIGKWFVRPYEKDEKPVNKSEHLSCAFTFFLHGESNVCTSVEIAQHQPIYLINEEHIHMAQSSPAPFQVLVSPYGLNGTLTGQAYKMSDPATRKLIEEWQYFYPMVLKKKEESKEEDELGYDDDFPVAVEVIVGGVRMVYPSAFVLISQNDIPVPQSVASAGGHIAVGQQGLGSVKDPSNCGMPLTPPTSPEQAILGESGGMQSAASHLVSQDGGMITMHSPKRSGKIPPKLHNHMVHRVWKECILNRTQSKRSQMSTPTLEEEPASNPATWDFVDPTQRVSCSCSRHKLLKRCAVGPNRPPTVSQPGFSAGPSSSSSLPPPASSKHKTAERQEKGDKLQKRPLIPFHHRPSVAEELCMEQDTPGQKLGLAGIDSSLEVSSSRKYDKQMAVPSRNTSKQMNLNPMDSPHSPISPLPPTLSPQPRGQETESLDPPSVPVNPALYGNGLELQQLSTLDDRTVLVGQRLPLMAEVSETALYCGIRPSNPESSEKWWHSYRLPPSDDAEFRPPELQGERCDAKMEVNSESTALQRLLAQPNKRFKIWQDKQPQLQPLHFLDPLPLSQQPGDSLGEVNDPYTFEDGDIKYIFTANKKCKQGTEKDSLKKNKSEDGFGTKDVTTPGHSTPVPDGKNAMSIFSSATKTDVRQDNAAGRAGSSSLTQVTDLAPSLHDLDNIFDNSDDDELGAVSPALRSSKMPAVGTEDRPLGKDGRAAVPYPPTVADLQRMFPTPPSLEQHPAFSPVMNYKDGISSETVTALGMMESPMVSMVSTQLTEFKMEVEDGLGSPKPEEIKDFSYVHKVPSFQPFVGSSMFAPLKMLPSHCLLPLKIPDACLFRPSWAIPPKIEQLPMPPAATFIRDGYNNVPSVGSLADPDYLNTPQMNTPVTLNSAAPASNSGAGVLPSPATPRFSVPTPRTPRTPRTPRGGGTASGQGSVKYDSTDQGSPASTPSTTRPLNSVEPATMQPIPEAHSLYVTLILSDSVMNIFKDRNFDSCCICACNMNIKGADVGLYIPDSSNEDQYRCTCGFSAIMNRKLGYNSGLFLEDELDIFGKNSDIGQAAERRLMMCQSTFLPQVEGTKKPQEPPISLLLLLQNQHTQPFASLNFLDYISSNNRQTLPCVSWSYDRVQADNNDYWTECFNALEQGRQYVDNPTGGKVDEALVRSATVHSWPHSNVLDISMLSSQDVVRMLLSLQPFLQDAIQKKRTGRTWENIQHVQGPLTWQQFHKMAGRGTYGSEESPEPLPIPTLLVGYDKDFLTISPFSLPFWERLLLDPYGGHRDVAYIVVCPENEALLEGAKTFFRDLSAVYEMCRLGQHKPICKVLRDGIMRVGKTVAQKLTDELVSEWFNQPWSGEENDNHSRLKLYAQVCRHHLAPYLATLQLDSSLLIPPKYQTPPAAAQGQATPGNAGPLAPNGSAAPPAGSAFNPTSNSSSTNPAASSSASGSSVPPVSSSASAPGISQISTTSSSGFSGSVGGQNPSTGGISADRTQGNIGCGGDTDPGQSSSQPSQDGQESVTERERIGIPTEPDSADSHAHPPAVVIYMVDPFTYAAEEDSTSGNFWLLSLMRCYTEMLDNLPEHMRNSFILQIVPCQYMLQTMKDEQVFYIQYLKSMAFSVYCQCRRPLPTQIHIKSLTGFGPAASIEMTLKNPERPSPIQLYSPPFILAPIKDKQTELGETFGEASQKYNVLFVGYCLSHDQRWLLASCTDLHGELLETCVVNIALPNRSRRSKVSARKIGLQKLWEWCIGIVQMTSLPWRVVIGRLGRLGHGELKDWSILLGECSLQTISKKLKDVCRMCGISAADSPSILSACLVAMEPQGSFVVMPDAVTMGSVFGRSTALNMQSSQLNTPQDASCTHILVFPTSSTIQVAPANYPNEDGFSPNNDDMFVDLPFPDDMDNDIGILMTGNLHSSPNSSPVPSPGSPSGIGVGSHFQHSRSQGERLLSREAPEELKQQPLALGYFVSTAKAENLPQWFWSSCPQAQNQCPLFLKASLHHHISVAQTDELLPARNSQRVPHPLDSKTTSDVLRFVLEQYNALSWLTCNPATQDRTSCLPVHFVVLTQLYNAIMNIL
# UniProt Q86UK7: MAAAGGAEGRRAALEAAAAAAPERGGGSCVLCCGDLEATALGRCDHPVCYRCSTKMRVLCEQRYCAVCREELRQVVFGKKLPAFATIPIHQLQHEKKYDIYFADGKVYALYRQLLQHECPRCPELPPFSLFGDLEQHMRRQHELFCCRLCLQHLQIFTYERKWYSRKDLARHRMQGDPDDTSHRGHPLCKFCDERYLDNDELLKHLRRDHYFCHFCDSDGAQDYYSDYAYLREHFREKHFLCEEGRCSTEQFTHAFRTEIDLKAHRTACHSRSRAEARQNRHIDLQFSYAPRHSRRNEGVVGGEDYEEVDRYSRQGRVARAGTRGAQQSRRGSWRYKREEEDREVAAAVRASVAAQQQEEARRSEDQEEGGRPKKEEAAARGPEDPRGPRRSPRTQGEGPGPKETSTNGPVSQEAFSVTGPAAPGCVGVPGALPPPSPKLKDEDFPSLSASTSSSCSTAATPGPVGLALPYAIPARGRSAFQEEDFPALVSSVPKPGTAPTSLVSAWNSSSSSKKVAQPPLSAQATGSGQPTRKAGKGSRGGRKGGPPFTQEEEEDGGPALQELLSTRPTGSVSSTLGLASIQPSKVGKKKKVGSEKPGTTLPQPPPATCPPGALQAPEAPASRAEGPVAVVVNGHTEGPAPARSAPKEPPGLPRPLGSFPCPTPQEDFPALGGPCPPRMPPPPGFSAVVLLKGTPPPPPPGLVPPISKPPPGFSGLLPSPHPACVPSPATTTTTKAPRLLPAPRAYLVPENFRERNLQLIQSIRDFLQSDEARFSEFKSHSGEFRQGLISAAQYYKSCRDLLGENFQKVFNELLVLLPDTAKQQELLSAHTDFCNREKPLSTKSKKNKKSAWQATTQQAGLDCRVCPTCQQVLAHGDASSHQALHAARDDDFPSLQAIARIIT
# UniProt Q7Z2K6: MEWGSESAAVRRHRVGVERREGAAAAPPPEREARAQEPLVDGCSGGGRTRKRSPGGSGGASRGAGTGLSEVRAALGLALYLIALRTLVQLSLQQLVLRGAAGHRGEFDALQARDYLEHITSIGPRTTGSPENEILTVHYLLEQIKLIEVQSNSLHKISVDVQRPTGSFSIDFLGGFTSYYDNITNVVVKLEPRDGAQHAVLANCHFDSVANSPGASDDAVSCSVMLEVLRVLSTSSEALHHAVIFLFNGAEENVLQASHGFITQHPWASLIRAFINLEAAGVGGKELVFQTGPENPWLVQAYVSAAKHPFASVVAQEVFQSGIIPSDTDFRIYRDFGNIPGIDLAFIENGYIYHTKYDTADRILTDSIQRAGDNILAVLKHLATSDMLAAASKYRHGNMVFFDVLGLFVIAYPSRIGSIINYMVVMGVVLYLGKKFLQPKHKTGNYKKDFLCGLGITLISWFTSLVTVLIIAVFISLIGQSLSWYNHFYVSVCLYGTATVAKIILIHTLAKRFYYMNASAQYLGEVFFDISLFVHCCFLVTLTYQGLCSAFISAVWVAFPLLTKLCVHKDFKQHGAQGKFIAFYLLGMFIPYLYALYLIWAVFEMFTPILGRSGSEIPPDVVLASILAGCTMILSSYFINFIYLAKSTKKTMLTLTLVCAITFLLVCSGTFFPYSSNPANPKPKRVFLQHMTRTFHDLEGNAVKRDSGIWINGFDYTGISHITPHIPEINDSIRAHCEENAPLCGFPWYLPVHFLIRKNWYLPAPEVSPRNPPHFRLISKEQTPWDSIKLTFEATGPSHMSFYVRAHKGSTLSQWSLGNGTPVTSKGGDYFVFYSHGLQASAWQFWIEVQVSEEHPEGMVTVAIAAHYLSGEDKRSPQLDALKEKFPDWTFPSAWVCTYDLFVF
# UniProt Q7Z6J8: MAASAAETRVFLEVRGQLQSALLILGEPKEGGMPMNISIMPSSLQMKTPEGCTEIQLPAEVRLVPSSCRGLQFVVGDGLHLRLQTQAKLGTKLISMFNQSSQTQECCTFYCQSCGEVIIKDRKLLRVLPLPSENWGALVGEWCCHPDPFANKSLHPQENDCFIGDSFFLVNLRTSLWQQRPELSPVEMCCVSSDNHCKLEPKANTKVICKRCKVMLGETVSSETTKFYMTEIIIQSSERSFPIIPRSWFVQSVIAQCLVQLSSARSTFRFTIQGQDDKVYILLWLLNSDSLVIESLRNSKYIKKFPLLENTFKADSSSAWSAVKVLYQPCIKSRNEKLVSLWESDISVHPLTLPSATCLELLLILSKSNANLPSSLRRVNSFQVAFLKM
# UniProt Q7RTS9: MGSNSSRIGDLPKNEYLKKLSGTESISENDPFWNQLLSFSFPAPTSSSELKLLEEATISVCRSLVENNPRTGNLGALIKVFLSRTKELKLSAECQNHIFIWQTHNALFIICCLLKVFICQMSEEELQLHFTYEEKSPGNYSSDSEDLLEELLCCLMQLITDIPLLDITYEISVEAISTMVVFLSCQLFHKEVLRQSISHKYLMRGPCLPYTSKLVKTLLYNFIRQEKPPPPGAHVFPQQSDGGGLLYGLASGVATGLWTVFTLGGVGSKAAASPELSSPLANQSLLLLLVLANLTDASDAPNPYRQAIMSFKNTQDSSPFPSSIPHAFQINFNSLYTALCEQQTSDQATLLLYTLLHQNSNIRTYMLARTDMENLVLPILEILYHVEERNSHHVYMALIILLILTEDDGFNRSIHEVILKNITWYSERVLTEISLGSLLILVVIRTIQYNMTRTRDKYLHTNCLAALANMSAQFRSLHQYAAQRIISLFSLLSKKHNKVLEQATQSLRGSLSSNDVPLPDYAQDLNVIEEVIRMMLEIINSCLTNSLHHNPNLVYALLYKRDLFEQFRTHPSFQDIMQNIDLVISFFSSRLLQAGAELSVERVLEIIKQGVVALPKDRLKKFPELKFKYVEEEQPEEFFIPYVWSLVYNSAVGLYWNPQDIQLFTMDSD
# UniProt Q7Z6K3: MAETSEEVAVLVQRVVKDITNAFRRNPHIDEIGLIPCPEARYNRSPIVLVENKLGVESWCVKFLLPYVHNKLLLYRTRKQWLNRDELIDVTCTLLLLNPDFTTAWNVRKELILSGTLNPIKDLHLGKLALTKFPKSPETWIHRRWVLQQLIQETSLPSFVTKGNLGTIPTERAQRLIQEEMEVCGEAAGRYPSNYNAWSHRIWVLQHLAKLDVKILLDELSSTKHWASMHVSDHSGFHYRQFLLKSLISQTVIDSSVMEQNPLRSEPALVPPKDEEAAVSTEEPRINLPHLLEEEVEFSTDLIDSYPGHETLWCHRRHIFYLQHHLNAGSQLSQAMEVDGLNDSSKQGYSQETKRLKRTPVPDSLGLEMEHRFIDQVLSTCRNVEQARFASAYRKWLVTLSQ
# UniProt Q86U70: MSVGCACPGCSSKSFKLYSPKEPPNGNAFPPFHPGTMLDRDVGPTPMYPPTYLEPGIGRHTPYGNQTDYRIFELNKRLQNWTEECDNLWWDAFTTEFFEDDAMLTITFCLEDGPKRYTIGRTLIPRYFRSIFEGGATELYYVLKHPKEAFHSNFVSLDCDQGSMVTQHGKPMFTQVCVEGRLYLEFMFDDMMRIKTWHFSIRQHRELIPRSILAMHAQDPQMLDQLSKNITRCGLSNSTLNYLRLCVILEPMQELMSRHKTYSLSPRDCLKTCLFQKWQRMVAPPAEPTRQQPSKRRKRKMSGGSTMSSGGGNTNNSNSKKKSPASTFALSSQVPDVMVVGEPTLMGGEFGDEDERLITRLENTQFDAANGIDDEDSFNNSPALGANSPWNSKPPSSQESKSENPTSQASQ
# Compound: CN[C@@H]1C[C@H]2O[C@@](C)([C@@H]1OC)n1c3ccccc3c3c4c(c5c6ccccc6n2c5c31)C(=O)NC4 [staurosporine]
# Test: log2 fold change of tryptic peptide abundance, ligand vs vehicle (limited proteolysis) (log2 ratio); higher = more trypsin-susceptible (destabilized)
# Details: ligand concentration: 20 uM; sample: K562 cleared lysate; digestion: 4 min, 22 C (HT-PELSA RT4min, Orbitrap Astral)
row,Target,log2 fold change
1,"PATL1 (peptide sequence: LITPQVAK, peptide start residue: 461) (UniProt Q86TB9)",0.187
2,"ZNF574 (peptide sequence: RIHTGERPYPCPDCGK, peptide start residue: 758) (UniProt Q6ZN55)",-0.323
3,"UniProt Q86UY6 (peptide sequence: LGDPLEAFPVFK, peptide start residue: 35)",0.506
4,"TRMT11 (peptide sequence: EKYFSGVTKR, peptide start residue: 444) (UniProt Q7Z4G4)",0.817
5,"KIF21A (peptide sequence: QVRPMSDKVAGK, peptide start residue: 836) (UniProt Q7Z4S6)",0.508
6,"C15orf39 (peptide sequence: TNFHSSVAFMFR, peptide start residue: 641) (UniProt Q6ZRI6)",-0.536
7,"UniProt Q6ZNG1 (peptide sequence: SFQCNESGK, peptide start residue: 214)",-0.0381
8,"UniProt Q86VZ2 (peptide sequence: AQLALSSSANQSK, peptide start residue: 11)",0.202
9,"AACS (peptide sequence: MASGHAFQPDLVKR, peptide start residue: 589) (UniProt Q86V21)",0.486
10,"UniProt Q7Z6W7 (peptide sequence: WHPDKNPENKEEAER, peptide start residue: 30)",0.14
11,"MYH14 (peptide sequence: QLLQANPILEAFGNAK, peptide start residue: 210) (UniProt Q7Z406)",0.414
12,"DEF8 (peptide sequence: QAHLNPFNK, peptide start residue: 73) (UniProt Q6ZN54)",-0.199
13,"MED13L (peptide sequence: LLAQPNKR, peptide start residue: 672) (UniProt Q71F56)",0.123
14,"MACC1 (peptide sequence: EDPFLFCR, peptide start residue: 98) (UniProt Q6ZN28)",-0.209
15,"MRPL10 (peptide sequence: EIAAVFQDNR, peptide start residue: 85) (UniProt Q7Z7H8)",0.368
16,"UniProt Q70EK9 (peptide sequence: KLPIVACFHLK, peptide start residue: 400)",0.146
17,"PIWIL4 (peptide sequence: QLIGLIVLTR, peptide start residue: 296) (UniProt Q7Z3Z4)",0.236
18,"MON2 (peptide sequence: FCVQPQLLR, peptide start residue: 362) (UniProt Q7Z3U7)",0.206
19,"ZNF598 (peptide sequence: EEEDREVAAAVR, peptide start residue: 339) (UniProt Q86UK7)",-0.214

# 2 entries drawn at random from the list so far:
row,Target,log2 fold change
14,"MACC1 (peptide sequence: EDPFLFCR, peptide start residue: 98) (UniProt Q6ZN28)",-0.209
1,"PATL1 (peptide sequence: LITPQVAK, peptide start residue: 461) (UniProt Q86TB9)",0.187

# Following part

row,Target,log2 fold change
1,"ERMP1 (peptide sequence: EGAAAAPPPER, peptide start residue: 21) (UniProt Q7Z2K6)",-0.514
2,"ZBTB33 (peptide sequence: IITLDTATEIEGLSTGCK, peptide start residue: 415) (UniProt Q86T24)",0.209
3,"LCA5 (peptide sequence: NLELSTNSFQR, peptide start residue: 245) (UniProt Q86VQ0)",0.0617
4,"UniProt Q7Z6J8 (peptide sequence: RVNSFQVAFLKM, peptide start residue: 378)",-0.83
5,"DYM (peptide sequence: SLVENNPR, peptide start residue: 63) (UniProt Q7RTS9)",0.55
6,"ANKS3 (peptide sequence: EIGITLFGPK, peptide start residue: 466) (UniProt Q6ZW76)",-0.191
7,"WDR53 (peptide sequence: VNWLLGTK, peptide start residue: 327) (UniProt Q7Z5U6)",0.227
8,"KANSL1 (peptide sequence: LVRPNSIVPLSK, peptide start residue: 604) (UniProt Q7Z3B3)",0.374
9,"UniProt Q7L8W6 (peptide sequence: VENVCKR, peptide start residue: 126)",-0.303
10,"PTAR1 (peptide sequence: ELILSGTLNPIKDLHLGK, peptide start residue: 110) (UniProt Q7Z6K3)",-0.534
11,"SETX (peptide sequence: KSSKLCTCTEPIR, peptide start residue: 1222) (UniProt Q7Z333)",1.05
12,"TAX1BP1 (peptide sequence: KQLADAVAELK, peptide start residue: 403) (UniProt Q86VP1)",0.381
13,"MED25 (peptide sequence: EQIGQTHR, peptide start residue: 133) (UniProt Q71SY5)",0.13
14,"ZC3HAV1 (peptide sequence: IADDADPR, peptide start residue: 478) (UniProt Q7Z2W4)",-0.148
15,"GPAT4 (peptide sequence: DPTSLEEEIK, peptide start residue: 84) (UniProt Q86UL3)",-0.383
16,"ENOSF1 (peptide sequence: FKPLWIEEPTSPDDILGHATISK, peptide start residue: 270) (UniProt Q7L5Y1)",0.192
17,"LDB1 (peptide sequence: KMSGGSTMSSGGGNTNNSNSK, peptide start residue: 300) (UniProt Q86U70)",0.901
18,"PHLDB2 (peptide sequence: LREQEMER, peptide start residue: 601) (UniProt Q86SQ0)",0.257

# — the supplement of paper PMC12819154, “High-throughput peptide-centric local stability assay extends protein–ligand identification to membrane proteins, tissues and bacteria” (Nature Structural & Molecular Biology, 2025)
